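Mouse JNK3 kinase in lysate of cytokine-stimulated human HepG2 cells; biotin-c-Jun phosphorylation read by AlphaScreen luminescence after a 2 h reaction and 3 h bead step.
Each compound ran as a dilution series from about 0.6 nM up to 57.1 µM.
Fitted AC50 for either an inhibiting or an activating curve; a lower value means greater potency.
Calls come from the fitted dose curve (inhibitor, activator, inactive or inconclusive); every row here is inconclusive, including some full curves, so the exact cut-off is unclear.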

Values are in µM.
All entries here are filed as inconclusive.
Only part of the assay is shown, chiefly results filed as inconclusive.
Potencies fitted to partial, single-point or poorly fitting curves are rough.
Some entries filed as inconclusive have a full curve.
The first word of each remark tells which way the curve ran; it can be opposite to the aim of the assay.

compound,potency (µM),remark
Brc1c(NC2=NCCN2)ccc2nccnc12,3.981,"activator, partial curve, poor fit"
COc1ccc2[nH]cc(CCNc3ncncc3-c3ccc(N(C)C)cc3)c2c1,25.12,"inhibitor, single point"
COC(=O)Nc1nc2ccc(C(=O)c3cccs3)cc2[nH]1,31.62,"activator, partial curve, poor fit"
CC(=O)c1c(O)c(C)c(O)c(Cc2c(O)c3c(c(C(=O)/C=C\c4ccccc4)c2O)OC(C)(C)C=C3)c1O,25.12,"inhibitor, partial curve"
Oc1cc2c(cc1O)[C@H]1c3ccccc3CN[C@H]1CC2,15.85,"inhibitor, partial curve"
CP(=O)(O)CCCN,0.002512,"activator, full curve, poor fit"
COCCn1c(=O)c(-c2ccc(F)cc2)nc2cnc(N(C)C)nc21,2.512,"activator, single point"
N#CCCn1c(=O)c(-c2cc(F)cc(F)c2)nc2cnc(Oc3cccc(Cl)c3)nc21,10,"inhibitor, partial curve"
O=C1/C(=C\c2ccccc2)C[C@@]2(O)[C@H]3Cc4ccc(O)c5c4[C@@]2(CCN3CC2CC2)[C@@H]1O5,12.59,"inhibitor, partial curve"
Cc1ccc(=O)n(-c2ccccc2)c1,0.003162,"activator, full curve, poor fit"
CC(C)[C@@H](CC(=O)N[C@@H]1CCNC[C@H]1C(=O)N[C@H](CC(=O)N[C@@H](CCC(=O)O)CC(=O)O)Cc1ccccc1)NC(=O)C[C@H](CO)NC(=O)[C@@H]1CNCC[C@H]1N,2.512,"inhibitor, full curve, poor fit"
COC(=O)c1c(-c2cc(OC)c(OC)c(OC)c2)c2ccnc(OCc3ncccn3)c2c(=O)n1Cc1ccnc(C)c1,0.0631,"activator, full curve"
Cc1ccc(S(=O)(=O)N[C@H](C(=O)O)C(C)C)cc1,0.07943,"activator, full curve"
Nc1nc2ccc(OC(F)(F)F)cc2s1,39.81,"inhibitor, single point"
C[C@H](N)CN1CCc2ccc(Br)cc21,0.01259,"activator, full curve, poor fit"
Cc1cc(=O)oc2cc(O)cc(O)c12,0.002512,"activator, full curve, poor fit"
NCCC[C@@H](CC(=O)N[C@@H]1CCCC[C@H]1C(=O)N[C@H](CC(=O)N[C@@H](CCC(=O)O)CC(=O)O)Cc1ccccc1)NC(=O)C[C@H](Cc1ccccc1)NC(=O)[C@@H]1CNCC[C@H]1N,2.512,"inhibitor, full curve, poor fit"
CCCCC(CC)COC(=O)c1ccccc1C(=O)OCC(CC)CCCC (centres unmarked),10,"activator, full curve"
CCCOC(=O)c1ccccc1C(=O)OCCC,15.85,"activator, full curve"
C=CC1CO1 (centres unmarked),15.85,"activator, full curve, poor fit"
C=C(CO)[C@H]1Cc2c(ccc3c(=O)c4c(oc23)COc2cc(OC)c(OC)cc2-4)O1,12.59,"inhibitor, partial curve"
NOCC(=O)O,0.1,"activator, full curve, poor fit"
Cc1ccccc1N,0.1259,"activator, partial curve, poor fit"
CC[C@@H](CO)NC(=O)[C@H]1C=C2c3cccc4[nH]cc(c34)C[C@H]2N(C)C1,12.59,"inhibitor, partial curve, poor fit"
CCCCCN(CCCCC)C(=O)[C@H](CCC(=O)O)NC(=O)c1ccc(Cl)c(Cl)c1,7.943,"activator, full curve, poor fit"
O=c1c(O)c(-c2ccc(O)c(O)c2)oc2c(OC[C@H]3O[C@@H](O)[C@@H](O)[C@H](O)[C@@H]3O)c(O)cc(O)c12,31.62,"inhibitor, partial curve"
C[C@]12N[C@H](Cc3ccccc31)c1ccccc12,19.95,"activator, partial curve"
COc1cc(-c2ccc(N)c(OC)c2)ccc1N,31.62,"inhibitor, partial curve"
COc1cccc2c1C(=N)c1c(O)c3c(c(O)c1C2=O)C[C@](O)(C(C)=O)C[C@@H]3O[C@H]1C[C@H](N)[C@@H](O)[C@H](C)O1,3.162,"inhibitor, single point"
ClCc1ccccn1,15.85,"activator, full curve, poor fit"
Nc1nc2c(nc(Br)n2[C@@H]2O[C@H]3COP(=O)(O)O[C@H]3[C@@H]2O)c(=O)[nH]1,0.007943,"activator, full curve, poor fit"
NCCCCCC(=O)O,0.01,"activator, full curve, poor fit"
Cn1c(=O)c2[nH]c(CSCc3ccccc3)nc2n(C)c1=O,0.001259,"activator, full curve, poor fit"
CN(C)CCC=C1c2ccccc2CCc2ccccc21,0.003162,"inhibitor, full curve, poor fit"
Nc1c(S(=O)(=O)O)cc(Nc2cccc(S(N)(=O)=O)c2)c2c1C(=O)c1ccccc1C2=O,3.162,"inhibitor, partial curve"
CC(C)[C@@H](CC(=O)N[C@@H]1CCCC[C@H]1C(=O)N[C@H](CC(=O)N[C@@H](CCC(=O)O)CC(=O)O)Cc1ccccc1)NC(=O)C[C@H](Cc1c[nH]c2ccccc12)NC(=O)[C@@H]1CNCC[C@H]1N,7.943,"inhibitor, single point"
COc1ccc(CNc2ncnc3ccc(-c4ccc(N(C)C)cc4)cc23)c(OC)c1,25.12,"inhibitor, partial curve"

3 of the entries, repeated:

| compound | potency (µM) | remark |
|---|---|---|
| `NCCC[C@@H](CC(=O)N[C@@H]1CCCC[C@H]1C(=O)N[C@H](CC(=O)N[C@@H](CCC(=O)O)CC(=O)O)Cc1ccccc1)NC(=O)C[C@H](Cc1ccccc1)NC(=O)[C@@H]1CNCC[C@H]1N` | 2.512 | inhibitor, full curve, poor fit |
| `NOCC(=O)O` | 0.1 | activator, full curve, poor fit |
| `COc1ccc(CNc2ncnc3ccc(-c4ccc(N(C)C)cc4)cc23)c(OC)c1` | 25.12 | inhibitor, partial curve |

Data taken from PubChem BioAssay AID530, deposited by NCATS (2006).